According to PMC10011449:
No constants are given. Whether binding was seen depends on the method and setting. Binding seen in cells or lysates may run through a third protein. Some binding calls cover weakened binding; strength is not graded here.

Sequences of proteins named here, by UniProt entry; tags and fusion partners are left off.
UniProt P31977: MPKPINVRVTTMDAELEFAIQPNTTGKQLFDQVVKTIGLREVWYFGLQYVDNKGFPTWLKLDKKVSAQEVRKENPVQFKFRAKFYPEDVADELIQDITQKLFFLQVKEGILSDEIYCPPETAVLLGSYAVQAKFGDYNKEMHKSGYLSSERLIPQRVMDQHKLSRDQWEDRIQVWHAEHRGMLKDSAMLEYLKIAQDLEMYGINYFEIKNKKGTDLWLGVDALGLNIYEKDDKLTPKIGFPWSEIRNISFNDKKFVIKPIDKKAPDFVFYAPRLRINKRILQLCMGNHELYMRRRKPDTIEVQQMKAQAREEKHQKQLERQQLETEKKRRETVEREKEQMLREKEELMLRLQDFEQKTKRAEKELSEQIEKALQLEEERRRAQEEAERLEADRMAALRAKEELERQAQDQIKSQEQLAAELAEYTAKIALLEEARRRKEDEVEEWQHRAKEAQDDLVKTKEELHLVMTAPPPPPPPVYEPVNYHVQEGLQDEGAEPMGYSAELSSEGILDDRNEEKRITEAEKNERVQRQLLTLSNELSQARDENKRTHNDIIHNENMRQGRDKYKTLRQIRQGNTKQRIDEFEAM
UniProt P19634: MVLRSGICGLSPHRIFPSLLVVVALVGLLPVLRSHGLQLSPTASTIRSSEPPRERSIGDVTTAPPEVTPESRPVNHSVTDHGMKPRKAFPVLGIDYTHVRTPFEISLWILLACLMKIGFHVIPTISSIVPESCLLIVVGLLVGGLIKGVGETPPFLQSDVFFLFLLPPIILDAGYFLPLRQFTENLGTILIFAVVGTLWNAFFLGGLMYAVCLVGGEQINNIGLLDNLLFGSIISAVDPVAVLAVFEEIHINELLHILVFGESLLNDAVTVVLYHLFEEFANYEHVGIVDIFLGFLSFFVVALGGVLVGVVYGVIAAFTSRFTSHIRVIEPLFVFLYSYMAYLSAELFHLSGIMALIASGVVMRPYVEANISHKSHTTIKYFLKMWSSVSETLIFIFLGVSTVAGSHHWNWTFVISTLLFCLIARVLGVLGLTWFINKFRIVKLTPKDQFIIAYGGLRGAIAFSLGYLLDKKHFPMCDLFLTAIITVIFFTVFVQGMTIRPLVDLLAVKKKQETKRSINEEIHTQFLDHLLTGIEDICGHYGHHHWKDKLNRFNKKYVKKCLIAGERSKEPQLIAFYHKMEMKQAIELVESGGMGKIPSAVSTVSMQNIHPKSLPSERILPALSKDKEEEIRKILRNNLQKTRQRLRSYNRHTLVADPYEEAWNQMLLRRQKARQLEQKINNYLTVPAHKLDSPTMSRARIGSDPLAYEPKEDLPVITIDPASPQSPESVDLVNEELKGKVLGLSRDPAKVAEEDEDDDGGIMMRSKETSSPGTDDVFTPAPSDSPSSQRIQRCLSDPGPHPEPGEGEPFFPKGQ
UniProt P26431: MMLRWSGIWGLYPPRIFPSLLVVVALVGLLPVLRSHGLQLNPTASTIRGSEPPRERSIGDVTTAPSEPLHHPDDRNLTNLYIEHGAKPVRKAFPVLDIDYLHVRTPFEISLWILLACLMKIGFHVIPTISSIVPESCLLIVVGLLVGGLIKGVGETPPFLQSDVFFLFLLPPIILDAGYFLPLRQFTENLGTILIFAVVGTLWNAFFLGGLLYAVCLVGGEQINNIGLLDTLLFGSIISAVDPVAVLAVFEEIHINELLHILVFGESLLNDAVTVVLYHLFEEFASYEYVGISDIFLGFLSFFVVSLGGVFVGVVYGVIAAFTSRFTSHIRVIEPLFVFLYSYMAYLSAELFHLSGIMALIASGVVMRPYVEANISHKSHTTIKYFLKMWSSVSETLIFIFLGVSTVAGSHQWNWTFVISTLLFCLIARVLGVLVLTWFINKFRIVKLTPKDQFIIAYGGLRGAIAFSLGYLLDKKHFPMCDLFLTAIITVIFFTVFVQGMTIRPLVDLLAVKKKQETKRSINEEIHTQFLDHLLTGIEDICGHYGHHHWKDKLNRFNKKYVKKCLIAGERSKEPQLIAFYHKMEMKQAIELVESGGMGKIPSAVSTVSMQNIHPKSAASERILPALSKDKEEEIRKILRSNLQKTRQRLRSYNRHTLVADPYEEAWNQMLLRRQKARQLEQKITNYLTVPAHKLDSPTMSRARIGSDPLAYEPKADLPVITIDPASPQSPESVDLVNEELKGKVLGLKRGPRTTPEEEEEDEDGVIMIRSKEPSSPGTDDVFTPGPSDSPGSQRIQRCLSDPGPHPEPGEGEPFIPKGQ

Legend:
[1] = target: phosphorylated ezrin (p-ezrin) (rat (endogenous in rat PASMCs)) (UniProt P31977); experiment: co-IP; anti-p-ezrin immunoprecipitation (reverse pull-down) from lysates of rat PASMCs infected with AdNHE1, AdMut or AdGFP; blots for HA and SMA; IgG as control
[2] = target: phosphorylated ezrin (p-ezrin) (rat (endogenous in rat PASMCs)) (UniProt P31977); experiment: co-IP; anti-p-ezrin immunoprecipitation from lysates of rat PASMCs kept under control conditions; blot for NHE1; IgG as control
[3] = target: phosphorylated ezrin (p-ezrin) (rat (endogenous in rat PASMCs)) (UniProt P31977); experiment: co-IP; anti-p-ezrin immunoprecipitation from lysates of rat PASMCs, hypoxic (4% O2, 24 h) or control; blots for NHE1 and SMA; IgG as control
[4] = target: HA-tagged wild-type human NHE1 (AdNHE1) (human) (UniProt P19634); experiment: co-IP; anti-HA immunoprecipitation (HA-tagged NHE1 as bait) from lysates of rat PASMCs infected with AdNHE1 or AdMut; blots for p-ezrin and SMA; IgG as control

Substance: HA-tagged wild-type human NHE1 (AdNHE1) (from UniProt P19634 1-815)
- binding [1]: binds

Substance: Na+/H+ exchanger isoform 1 (NHE1), native, in rat pulmonary arterial smooth muscle cells (from UniProt P26431 1-820)
- binding [2]: binds weakly
- binding [3]: binds

Substance: phosphorylated ezrin (p-ezrin) (from UniProt P31977 1-586)
- binding [4]: binds
